Results taken from PubChem BioAssay (EPA / NIEHS).
The hits were mostly taken out for another list; the other results follow. Active and inactive are the calls of the source. The calls were made as follows: active = hit-call score of the fitted dose curve at least 0.9, where 1 is the maximum; inactive = score below 0.9.

Assays:
Conditions in all cases: actives raise or lower the signal; mRNA level, 48 h
[1] = read-out: Tumor necrosis factor receptor superfamily member 6 (Homo sapiens) (UniProt P25445); assay: LTEA_HepaRG_FAS: Life Technologies and Expression Analysis (LTEA) Assay for Fas cell surface death receptor (FAS) using HepaRG (AID 2283447)
How it was run: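 Differentiated human HepaRG cells, pre-cultured 48 h, were exposed in duplicate for 48 h to 8-point half-log concentrations (top 100 uM, 0.5% DMSO) in serum-free induction medium; FAS mRNA measured by qRT-PCR, normalized to ACTB/GAPDH/POLR2A, bidirectional fit versus DMSO.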

[2] = read-out: Pro-epidermal growth factor (Homo sapiens) (UniProt P01133); assay: LTEA_HepaRG_EGF: Life Technologies and Expression Analysis (LTEA) Assay for Epidermal growth factor (EGF) using HepaRG (AID 2283489)
How it was run: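 HepaRG, 48 h dosing, 100 uM top, half-log x8, 0.5% DMSO. Readout: TaqMan qRT-PCR (Fluidigm array), housekeeping-normalized. Gain or loss of signal fit vs DMSO.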

[3] = read-out: Cytochrome P450 7A1 (Homo sapiens) (UniProt P22680); assay: LTEA_HepaRG_CYP7A1: Life Technologies and Expression Analysis (LTEA) Assay for Cytochrome P450 7A1 (CYP7A1) using HepaRG (AID 2283496)
How it was run: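 HepaRG cells plated 48 h, then switched to serum-free induction medium and exposed in duplicate for 48 h to 8-point half-log series from 100 uM in 0.5% DMSO. CYP7A1 mRNA by qRT-PCR (TaqMan), normalized to ACTB/GAPDH/POLR2A; bidirectional fit versus DMSO.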

Measured: outcome

CCCCCCCCc1ccc(O)cc1
inactive: all assays above
